According to PubChem BioAssay AID493014 (National Center for Advancing Translational Sciences (NCATS), 2011):
This is one part of the list. These are further read-outs of the screen, such as a control signal, another cell line or another target. No call is given for them. Compounds called inactive in the main read-out are mostly missing here. Potencies come from curve fits of mixed quality, noted in brackets.

Experiment: qHTS Assay to Find Inhibitors of Chronic Active B-Cell Receptor Signaling
Settings: ABC-DLBCL IkBa-CBG/CBR reporter, luminescence ratio (green luciferase fused to IkBa over red control in TMD8 lymphoma cells), 4 h
How it was run: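 Doxycycline induced both beetle luciferases in TMD8 lymphoma cells; IKK-driven degradation limits the IkappaBalpha-fused green signal, while red luminescence normalises for cell number and nonspecific effects. Compounds tested up to 46 uM, 4 hrs.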

[1] = measured here: CBR red luminescence, cell number
[2] = measured here: IkBa-CBG green luminescence

Row | Compound | AC50 [1] | AC50 [2]
1 | C/C(CC(=O)Nc1ccc(C)c(Cl)c1)=N\NC(=O)Cc1cccs1 | 31.6 µM [falling, single point] | –
2 | CCOc1ccccc1NC(=O)C(=O)/C=C(\O)c1cc(OC)ccc1OC | 1.16 µM [falling, partial curve, poor fit] | –
3 | CCN(Cc1ccc(C#CCCO)cc1)CC1CCCN(CCc2cccc(OC)c2)C1 (stereo not drawn) | 20 µM [falling, partial curve, poor fit] | –
4 | Cc1c(C(=O)Nc2nnc(C(F)(F)F)s2)oc2ccccc12 | 6.31 µM [falling, full curve] | –
5 | COc1cc2c3c(c1)C(C)=CC(C)(C)N3C(=O)C2=O | – | 20 µM [falling, partial curve, poor fit]
6 | COc1ccc(NC(=O)COC(=O)/C=C/c2ccc(OC)c(S(=O)(=O)N3CCOCC3)c2)cc1 | 7.31 µM [falling, partial curve] | –
7 | Cc1ccccc1-c1cc(-c2ccccc2O)n[nH]1 | 29.1 µM [rising, single point] | –
8 | Cc1cc(=O)oc(C)c1C(=O)NCCC1=CCCCC1 | 0.00517 µM [rising, full curve, poor fit] | –
9 | Cc1ccc(-n2ncc3c(N4CCN(c5ccccc5)CC4)ncnc32)c(C)c1 | 7.08 µM [falling, partial curve, poor fit] | –
10 | CSc1ccc(NC(=O)CSc2nc3[nH]c(=O)cc(O)c3s2)cc1 | 23.1 µM [falling, partial curve] | –
11 | COc1cccc(C(=O)NOCc2ccccc2)c1OC | 8.2 µM [rising, partial curve, poor fit] | –
12 | O=C1NC[C@H](Cc2ccccc2)N(CC2CCCCC2)C1=O | 2 µM [rising, full curve, poor fit] | –
13 | COC(=O)Cn1c(=NC(=O)c2cc(OC)cc(OC)c2)sc2cc(OC)ccc21 | 2.06 µM [falling, full curve] | –
14 | O=C(CN(C(=O)CSc1nc2ccccc2o1)c1ccccc1F)NC1CCCCC1 | 2.59 µM [falling, full curve] | –
15 | COCC(C)NS(=O)(=O)c1ccc(C(=O)NCCCn2ccc3ccccc32)cc1 (stereo not drawn) | 14.1 µM [rising, single point] | –
16 | Cc1nn(C(=O)c2cccnc2)c(C)c1C | 35.5 µM [rising, partial curve, poor fit] | –
17 | Cn1c(=O)c2c(nc(NCCCO)n2Cc2cccc(Br)c2)n(C)c1=O | 9.2 µM [falling, partial curve, poor fit] | –
18 | C/C(=N\NC(=S)Nc1ccccc1C)C1Cc2ccccc2C(=O)O1 (stereo not drawn) | 25.1 µM [falling, partial curve, poor fit] | –
19 | COc1ccc(OC)c(-c2cc(C(=O)NCCN3CCOCC3)no2)c1 | 12.6 µM [rising, partial curve, poor fit] | –
20 | CCOC(=O)c1c(NC(=O)CSc2nnnn2C)sc(C)c1-c1ccc(C)cc1 | 15.8 µM [falling, single point] | –
21 | COc1cccc(C(=O)NCCC2=CCCCC2)c1 | 14.6 µM [falling, single point] | –
22 | CN(C)S(=O)(=O)c1ccc(C(=O)Nc2ccc3ncccc3c2)cc1 | 12.6 µM [rising, single point] | –

Row | Compound | AC50 [1] | AC50 [2]
23 | CC(=O)C1=C(c2ccccc2)NC(=S)NC1c1cc(Cl)c(OC(C)C)c(Cl)c1 (stereo not drawn) | 29.1 µM [falling, single point] | –
24 | CCOC(=O)c1csc(NC(=O)c2cc(OC)c(OC)c(OC)c2)n1 | 10 µM [falling, partial curve] | –
25 | Cc1ccc2nsnc2c1NC(=O)c1cccc([N+](=O)[O-])c1 | 18.4 µM [rising, partial curve, poor fit] | –
26 | COc1ccccc1CC(=O)NC1CCC(C)CC1 (stereo not drawn) | 17.8 µM [rising, single point] | –
27 | CCOc1ccc(C2C(C(=O)Nc3cc(C)on3)c3ccccc3C(=O)N2CCN2CCOCC2)cc1 (stereo not drawn) | 3.16 µM [rising, full curve, poor fit] | –
28 | CC(C)COc1ccc(C(=O)Nc2sc3c(c2C(=O)O)CC(C)(C)OC3)cc1 | 4.47 µM [falling, full curve] | –
29 | CCCOc1ccc(C(=O)NCC(c2ccco2)N(C)C)cc1 (stereo not drawn) | 9.2 µM [rising, partial curve] | –
30 | CC1CCCC(NC(=O)COC(=O)c2cc(S(=O)(=O)N3CCCCC3)ccc2N2CCOCC2)C1C (stereo not drawn) | 29.1 µM [rising, single point] | –
31 | COc1cccc(OCCOc2c(OC)cccc2OC)c1 | 3.55 µM [rising, full curve] | –
32 | CS(=O)(=O)c1ccc(Cl)c(NC(=O)CSc2nncn2-c2ccccc2)c1 | 8.91 µM [rising, partial curve, poor fit] | –
33 | O=C(c1cc(-c2cccc(Br)c2)nc2ccccc12)N1CCCC1 | 7.08 µM [falling, partial curve] | –
34 | COc1ccccc1NC(=O)C1=C(C)Nc2nc(-c3ccc(N(C)C)cc3)nn2C1c1ccncc1 (stereo not drawn) | 17.8 µM [falling, single point] | –
35 | O=C(/C=C/c1ccccc1[N+](=O)[O-])NCCc1ccc(F)cc1 | 35.5 µM [falling, single point] | –
36 | CCOc1ncccc1C(=O)OC(C)C(=O)Nc1ccc(Cl)cn1 (stereo not drawn) | 18.4 µM [falling, single point] | 20.6 µM [rising, partial curve, poor fit]
37 | Cc1ccc(O)c(C2=Nc3ccccc3N=C(c3cccc([N+](=O)[O-])c3)C2)c1 | 14.1 µM [rising, partial curve] | –
38 | CC(=O)c1ccc(-n2nnnc2SCC(=O)NC2CCCCC2)cc1 | 10 µM [falling, partial curve] | –
39 | COc1cc(C)ccc1S(=O)(=O)N1CCCCCC1 | 3.55 µM [rising, partial curve, poor fit] | –
40 | C/C(CC(C)(C)C1CCCCC1)=N\NC(N)=S | 11.6 µM [falling, partial curve, poor fit] | –
41 | COC(=O)c1ccc(N2CN=C(c3ccc(C)cc3)NC2=S)cc1 | 6.51 µM [falling, partial curve] | –
42 | Cn1c(SCc2ccccc2)nnc1-c1c[nH]c2ccccc12 | 0.82 µM [rising, full curve, poor fit] | –
43 | Cc1ccc(C(=O)c2cccc(N)c2)cc1C | 5.62 µM [falling, partial curve, poor fit] | –
44 | CC1(C)Oc2ccc3ccc(=O)oc3c2C[C@H]1O[C@@H]1O[C@H](CO)[C@@H](O)[C@H](O)[C@H]1O | 2.31 µM [rising, full curve, poor fit] | –

Compounds 30 through 31, quoted:
Row | Compound | AC50 [1] | AC50 [2]
30 | CC1CCCC(NC(=O)COC(=O)c2cc(S(=O)(=O)N3CCCCC3)ccc2N2CCOCC2)C1C (stereo not drawn) | 29.1 µM [rising, single point] | –
31 | COc1cccc(OCCOc2c(OC)cccc2OC)c1 | 3.55 µM [rising, full curve] | –

Following part:

Row | Compound | AC50 [1] | AC50 [2]
45 | C=CCNC(=S)NC(=O)c1oc2ccccc2c1C | 0.0891 µM [rising, full curve, poor fit] | –
46 | O=C(NC(=S)Nc1ccc2c(c1)OCO2)c1ccccc1 | 11.2 µM [falling, partial curve] | –
47 | Cc1cc(C)c2c(CCl)cc(=O)oc2c1 | 0.0891 µM [rising, full curve, poor fit] | –
48 | O=C1OCC(CO)(CO)N=C1NNc1ccccc1[N+](=O)[O-] | 0.224 µM [rising, full curve, poor fit] | –
49 | CCn1c(SC)nnc1-c1c[nH]c2ccccc12 | 29.1 µM [rising, partial curve, poor fit] | –
50 | Cc1ccc(-c2ccccc2NC(=O)CS(=O)CC(=O)Nc2ccc(C)c(Cl)c2)o1 (stereo not drawn) | 0.708 µM [rising, full curve, poor fit] | 15.8 µM [falling, partial curve]
51 | CS(=O)(=O)N(CCc1ccccc1)CC(N)=O | 6.51 µM [rising, single point] | –
52 | CN1CCN(c2nc3c(c(=O)[nH]c(=O)n3C)n2Cc2cccc(Br)c2)CC1 | 14.1 µM [rising, single point] | –
53 | Cc1cc(C(=O)Nc2cccc3ncccc23)no1 | 7.94 µM [falling, partial curve] | –
54 | Cc1ccc(-n2cc(CNCCc3ncc(C)[nH]3)c(-c3ccc(F)cc3)n2)cc1 | – | 12.6 µM [falling, partial curve]
55 | CCC(=O)C1=C(N2CCCC2)CC(C)(C)CC1=O | 32.6 µM [rising, single point] | –
56 | O=C(C1=C[C@H](c2ccc3c(c2)OCO3)C[C@H](OCc2ccc(CO)cc2)O1)N1CCN(Cc2ccc3c(c2)OCO3)CC1 | 22.4 µM [falling, partial curve, poor fit] | –
57 | COc1ccc(N(Cc2ccccc2)C(=O)CSc2nnc(Cn3nnc4ccccc43)o2)cc1 | 25.9 µM [falling, partial curve, poor fit] | –
58 | O=C(C1CCCCC1)N1CCN=C1SCc1cccnc1 | 18.4 µM [falling, single point] | –
59 | COC(=O)c1ccccc1NC(=O)c1cccc(COc2ccccc2Cl)c1 | 10.3 µM [rising, single point] | –
60 | COc1ccc(NC(=O)C2CC(c3cc(OC)c(OC)c(OC)c3)=NO2)cc1OC (stereo not drawn) | 23.1 µM [falling, single point] | –
61 | Cc1cc(N2C(=O)c3ccccc3C2=O)n(C)n1 | 0.398 µM [rising, full curve, poor fit] | –
62 | CC(C)c1ccc(C(=O)NC(=S)NCc2cccnc2)cc1 | 0.259 µM [rising, full curve, poor fit] | –
63 | CC(C)NC(=S)NCc1cccnc1 | 6.51 µM [rising, partial curve, poor fit] | –
64 | Cn1nnnc1SCc1ccc(F)cc1 | 0.631 µM [rising, full curve, poor fit] | –
65 | C=C1C(=O)C=C2CN(C(=O)c3ccccc3)[C@@](Cc3ccc(F)cc3)(C(=O)OC)[C@@H]12 | 2.59 µM [falling, partial curve] | 2.91 µM [falling, partial curve, poor fit]
